These are yes or no findings as the source states them, for the method shown. In cells and extracts the contact can be indirect. A yes stands for co-enrichment or nearness to the bait. Other partners may have been found. For some of these results: No binding means not detected with the bait. Sequences can lack the tags named with a protein.
Key:
HA-AFF4 (1–300) (human) = target: T1, HA-AFF4 (1–300) (human) (UniProt Q9UHB7); test: affinity purification with mass spectrometry; HEK293T expressing HA-AFF4 (full length or 1-300); lysate in 0.15% Triton X-100, 20 mM Tris-HCl pH 7.6, 200 mM NaCl, 0.72 mM EDTA, 10% glycerol; IP with anti-HA antibody and protein A beads at 4 °C; bands excised from SDS-PAGE, tandem MS; control cells without HA-AFF4
T1 sequence: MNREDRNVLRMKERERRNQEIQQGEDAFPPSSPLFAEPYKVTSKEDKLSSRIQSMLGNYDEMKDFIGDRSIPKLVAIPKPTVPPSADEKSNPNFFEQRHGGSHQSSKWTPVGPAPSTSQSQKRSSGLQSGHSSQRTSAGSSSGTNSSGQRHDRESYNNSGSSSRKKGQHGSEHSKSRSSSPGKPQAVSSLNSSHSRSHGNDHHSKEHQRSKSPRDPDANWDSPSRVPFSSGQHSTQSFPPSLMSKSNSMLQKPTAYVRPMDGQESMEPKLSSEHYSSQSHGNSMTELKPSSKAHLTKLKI

Amino acid sequences for entries named in this document (tags omitted).
UniProt P50750: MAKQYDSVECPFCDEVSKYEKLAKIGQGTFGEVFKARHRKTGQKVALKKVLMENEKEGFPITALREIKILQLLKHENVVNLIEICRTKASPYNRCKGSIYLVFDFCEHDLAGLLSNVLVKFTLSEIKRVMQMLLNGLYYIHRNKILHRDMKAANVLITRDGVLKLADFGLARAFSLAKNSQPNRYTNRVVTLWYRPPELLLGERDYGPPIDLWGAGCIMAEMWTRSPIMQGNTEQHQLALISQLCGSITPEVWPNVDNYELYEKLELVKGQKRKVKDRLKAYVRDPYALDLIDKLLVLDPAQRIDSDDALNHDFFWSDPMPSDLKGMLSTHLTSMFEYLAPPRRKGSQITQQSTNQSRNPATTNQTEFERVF
UniProt P35637: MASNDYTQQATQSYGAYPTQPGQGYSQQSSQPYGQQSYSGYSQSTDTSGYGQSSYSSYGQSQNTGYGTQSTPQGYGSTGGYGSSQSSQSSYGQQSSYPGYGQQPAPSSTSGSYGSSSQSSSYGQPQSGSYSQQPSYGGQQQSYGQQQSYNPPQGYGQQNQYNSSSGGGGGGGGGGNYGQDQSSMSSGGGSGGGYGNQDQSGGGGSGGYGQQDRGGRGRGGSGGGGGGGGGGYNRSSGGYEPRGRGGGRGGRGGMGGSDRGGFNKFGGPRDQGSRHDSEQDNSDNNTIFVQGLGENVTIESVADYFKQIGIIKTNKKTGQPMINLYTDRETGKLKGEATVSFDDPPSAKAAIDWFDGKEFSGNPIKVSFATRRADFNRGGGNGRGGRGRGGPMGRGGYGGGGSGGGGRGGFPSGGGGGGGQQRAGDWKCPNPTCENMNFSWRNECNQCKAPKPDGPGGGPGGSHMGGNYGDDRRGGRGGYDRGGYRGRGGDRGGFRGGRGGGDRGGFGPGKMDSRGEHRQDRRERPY

[1] = target: T2, full length HA-AFF4 (1–1163) (human) (UniProt Q9UHB7); test: as above
T2 sequence: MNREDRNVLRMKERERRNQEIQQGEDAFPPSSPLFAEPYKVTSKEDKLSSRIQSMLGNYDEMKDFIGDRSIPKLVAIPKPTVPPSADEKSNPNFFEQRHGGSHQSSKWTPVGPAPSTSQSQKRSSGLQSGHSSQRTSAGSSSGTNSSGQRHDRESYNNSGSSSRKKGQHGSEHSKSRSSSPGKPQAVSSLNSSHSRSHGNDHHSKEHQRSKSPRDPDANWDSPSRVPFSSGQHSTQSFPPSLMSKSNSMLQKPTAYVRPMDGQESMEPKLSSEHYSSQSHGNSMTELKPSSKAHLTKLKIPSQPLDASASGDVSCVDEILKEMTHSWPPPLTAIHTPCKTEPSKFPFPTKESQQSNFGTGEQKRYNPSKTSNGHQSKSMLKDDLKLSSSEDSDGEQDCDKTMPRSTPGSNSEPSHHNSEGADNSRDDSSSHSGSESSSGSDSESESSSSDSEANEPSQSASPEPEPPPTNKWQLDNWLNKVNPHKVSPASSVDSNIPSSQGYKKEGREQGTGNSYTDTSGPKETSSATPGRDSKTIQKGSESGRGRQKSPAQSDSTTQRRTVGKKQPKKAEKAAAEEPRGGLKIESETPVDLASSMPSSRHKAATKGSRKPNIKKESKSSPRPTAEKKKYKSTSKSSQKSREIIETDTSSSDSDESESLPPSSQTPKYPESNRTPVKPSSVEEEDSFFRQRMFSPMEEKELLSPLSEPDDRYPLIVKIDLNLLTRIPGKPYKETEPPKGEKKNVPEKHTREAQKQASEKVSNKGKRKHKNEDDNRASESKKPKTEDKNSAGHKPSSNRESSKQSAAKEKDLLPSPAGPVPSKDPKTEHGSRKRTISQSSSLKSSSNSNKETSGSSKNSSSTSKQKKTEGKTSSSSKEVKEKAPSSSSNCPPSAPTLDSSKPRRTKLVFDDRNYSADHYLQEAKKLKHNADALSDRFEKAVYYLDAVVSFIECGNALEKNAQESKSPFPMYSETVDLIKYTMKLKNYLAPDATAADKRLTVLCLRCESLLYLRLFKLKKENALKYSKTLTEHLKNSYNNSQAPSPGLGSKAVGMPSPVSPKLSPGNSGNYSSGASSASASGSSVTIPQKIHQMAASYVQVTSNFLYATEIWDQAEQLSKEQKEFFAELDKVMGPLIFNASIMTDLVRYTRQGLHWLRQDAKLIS

Substance	binding (HA-AFF4 (1–300) (human))	binding [1]
Cdk9 (endogenous, HEK293T) (from UniProt P50750 1-372)	binds	binds
Fused in Sarcoma, FUS (endogenous, HEK293T) (from UniProt P35637 1-526)	no binding	binds

Reference: publication PMC6593535
